# Measurements taken from PubChem BioAssay AID588499 (NMMLSC, 2011).
# The campaign covered roughly 360,000 compounds. About 610 (0.17%) were called active. The inconclusive results got no clear call from the source; some entries with a clear call stand among them for comparison. Cut-off read from the data, not from the text of the source: active = inhibition above about 30%; inconclusive = no clear call, values can overlap the other calls; inactive = below that.
# Test system: Botulinum neurotoxin type A light chain protease (Clostridium botulinum A str. ATCC 3502)
# Test: blockers of BoNT/A LC substrate cleavage – biochemical, flow cytometry, MLPCN library, primary screen (AID 588499); note: plate controls were buffer without enzyme for full effect and enzyme alone for no effect
# Settings: multiplex microsphere protease substrate cleavage, at 10 µM, hits give high values
row,SMILES,inhibition
1,Cc1ccc2c(C)nc(Nc3nc(CSc4nnnn4-c4ccccc4)cc(=O)[nH]3)nc2c1,inconclusive: 6%
2,COc1ccc(-n2c(=O)c(CCC(=O)NCCc3ccccc3F)nc3ccccc32)cc1,inactive: -2.6%
3,COc1cc(S(=O)(=O)N(Cc2cccs2)CC2CCCO2)ccc1-n1cnnn1 (configuration not stated),inconclusive: 4.3%
4,Nc1nc(Nc2ccccc2)nc(NCCO)c1[N+](=O)[O-],inconclusive: -8.8%
5,CC(Oc1cccc(Cl)c1)C(=O)Nc1nc(-c2ccccn2)cs1 (configuration not stated),inconclusive: -5.5%
6,CC(=O)Nc1ccc(C(=O)n2nc(C)cc2C)cc1,inconclusive: 3.6%
7,Cc1ccc(S(=O)(=O)NCCC(=O)O)cc1,inactive: -0.3%
8,O=C(NCCN1CCOCC1)c1cc(-c2cccc(O)c2)on1,inactive: 0.4%
9,CCc1ccc(NC(=O)CSc2n[nH]c(=O)n2C2CC2)cc1,inconclusive: -4.6%
10,Cc1ccc(-n2ncc(C(=O)N3CCc4ccccc4C3)c2NC(=O)c2ccco2)cc1C,inactive: 0.8%
11,CCOc1ccc(-c2nnn(CC(=O)NCc3ccco3)n2)cc1,inconclusive: 0.9%
12,CCOc1ccccc1NC(=O)c1nnn(CC(=O)Nc2ccc3c(c2)OCO3)c1N,inactive: -1.4%
13,CC(Oc1ccccc1F)c1nnc(SCC(=O)c2c(N)n(C3CC3)c(=O)[nH]c2=O)o1 (configuration not stated),active: 95.9%
14,COC(=O)c1cc(NC(=O)c2ccccc2)c(=O)oc1/C=C/Nc1ccc(Oc2ccccc2)cc1,active: 42.8%
15,CN(C)c1cccc(C(=O)Nc2cccc(S(=O)(=O)NC3=NCCC3)c2)c1,inactive: -1.9%
16,COc1ccc(Cl)cc1C(=O)O/N=C(\N)c1ccncc1,inconclusive: -9.8%
17,COC(=O)C1=C(C)N(CC2CCCO2)C(=O)C1 (configuration not stated),inconclusive: -3.4%
18,CC(C)(C)NC(=O)CN(C(=O)CCC(=O)Nc1nccs1)c1ccccc1F,inactive: -0.3%
19,Cc1ccc(C)n1-c1ccc(C(=O)N2CCOCC2)cc1,inconclusive: 5.3%

# Among those listed so far, 2 contain a furan ring, fused or not.
row,SMILES,inhibition
10,Cc1ccc(-n2ncc(C(=O)N3CCc4ccccc4C3)c2NC(=O)c2ccco2)cc1C,inactive: 0.8%
11,CCOc1ccc(-c2nnn(CC(=O)NCc3ccco3)n2)cc1,inconclusive: 0.9%

# (list continues)

row,SMILES,inhibition
1,CN1CCN2c3ccccc3CC3(C(=O)N(C)C(=O)N(C)C3=O)C2C1 (configuration not stated),inconclusive: -30%
2,FC(F)Sc1nc2ccccc2[nH]1,inconclusive: 1.5%
3,COc1ccc(/C=C2\SC(=S)N(CCC(=O)Nc3ccc(C(=O)O)cc3)C2=O)cc1,inactive: 1.4%
4,CC(=O)Nc1ccc(NC(=O)CSc2nnnn2-c2ccccc2F)cc1,inconclusive: 4.9%
5,COCCOc1cc2ncnc(N3CCC(C(=O)O)CC3)c2cc1OCCOC,inconclusive: -31.2%
6,O=C(Nc1cccc(F)c1)C1CCN(C(=O)c2ccc(Br)cc2)CC1,inactive: -0.7%
7,Cc1ccc(-c2ccc(=O)[nH]n2)cc1,inactive: -2.2%
8,CC(C)CN1C(=O)c2ccc(NC(=O)c3cccs3)cc2C1=O,inconclusive: -2.8%
9,CCC(C(=O)OC)n1cnc2c(nnn2-c2ccc(OC)cc2)c1=O (configuration not stated),inactive: 0.4%
10,Cc1cccc(N2CCN(C(=O)/C=C/c3cccs3)CC2)c1C,inactive: -0.1%
11,Cc1ccc(Nc2ncccc2C(=O)NCc2cccs2)c(C)c1,inconclusive: -6%
12,C=C(C)c1ccc(C(C)(C)NC(=O)N(Cc2ccccc2)Cc2ccco2)cc1,inconclusive: -0.2%
13,OCc1cccc(-c2cnc3c(Nc4cccc(OC(F)(F)C(F)F)c4)nccn23)c1,inactive: -0.2%
14,CC(=O)c1ccc(NC(=O)C(C)NCc2ccccc2Cl)cc1 (configuration not stated),inactive: -0.2%
15,COc1ccc(OCC(=O)Nc2ccc3c(c2)nc(CCN2CCOCC2)n3C)cc1,inactive: 0.6%
16,CC1(C)CC(=O)C(N=Nc2ccc(S(=O)(=O)N3CCOCC3)cc2)=C(O)C1,inactive: -0.4%
17,COc1ccccc1Oc1ccc(S(=O)(=O)Nc2cccnc2)cc1,inconclusive: 3.6%
18,O=C(N/N=C/c1cccc2ccccc12)c1ccncc1,inactive: 3.3%
19,CCOC(=O)N1CCN(C(=O)CN(c2ccc(OCc3ccccc3)cc2)S(C)(=O)=O)CC1,inconclusive: 4.5%

row,SMILES,inhibition
1,COc1ccc(S(=O)(=O)N(CC(=O)NN=C2CCN(C)CC2)c2ccc(C)cc2)cc1OC,inconclusive: -1.7%
2,O=c1c(/C=C(\O)c2ccc(F)cc2)nc2ccccc2n1-c1ccccc1,active: 46.2%
3,COc1ccc(CNC(=O)CN2C(=O)C3CCCN3c3ncc(Cl)cc32)cc1 (configuration not stated),inconclusive: 0.2%
4,COc1ccc(-c2nn3c(C4CCCCC4)nnc3s2)cc1OC,inactive: -0.4%
5,CC(C)n1c(=O)c2c(O)cc(=O)oc2c2ccccc21,inconclusive: 1.9%
6,O=C(NC(=S)Nc1ccc2nc[nH]c2c1)c1ccccc1,inactive: -2.2%
7,Cc1ccccc1CN1CCN(Cc2ccccc2C(F)(F)F)CC1,inconclusive: 4.7%
8,COc1ccccc1NC(=O)CSc1nc2[nH]ncc2c(=O)[nH]1,inconclusive: 2.1%
9,CCOC(=O)c1c(NC(=O)CSc2nncs2)sc(C)c1C,inactive: -0.2%
10,CCOC(=O)C1=C(C)NC2=C(C1c1ccc([N+](=O)[O-])cc1)S(=O)(=O)c1ccccc12 (configuration not stated),inconclusive: 6.4%
11,O=C1[C@H]2[C@@H](c3ccc(Cl)cc3)N3C(=O)N(c4cccc(Cl)c4)C(=O)[C@@]3(Cc3ccccc3)[C@H]2C(=O)N1C1CCCCC1,inactive: -0.3%
12,CCOC(=O)c1c(NC(=O)C(C)Sc2cccc[n+]2[O-])sc2c1CCN(Cc1ccccc1)C2 (configuration not stated),active: 45.2%
13,CC1(C)CC(=O)C2=C(C1)N(c1cccc(Cl)c1)C(=O)NC2(C(F)(F)F)C(F)(F)F,inactive: 0.9%
14,O=C(NCc1ccc2c(c1)OCO2)C1CCCN1S(=O)(=O)c1ccc(Cl)cc1 (configuration not stated),inactive: -1%
15,O=C(c1ccc2c(c1)N(Cc1ccccc1)C(=O)c1ccccc1S2)N1CCCC1,inconclusive: 4.4%
16,COc1cccc(-c2nc(CS(=O)(=O)CC(=O)NCCCOC(C)C)c(C)o2)c1,inconclusive: 2.5%
17,CN1CCN(c2ccc(CNS(=O)(=O)c3cccc(F)c3)cc2)CC1,inconclusive: -13.4%
18,CCN(CC)C(=O)Oc1nnc(SC(C)C)n1-c1ccc(Cl)cc1,inconclusive: 7.1%
19,NC(=O)CSc1nnc(CNc2ccc(F)cc2)n1CC1CCCO1 (configuration not stated),inactive: -0.9%
